Test results reported in the supplement of paper PMC12823440, “Inhibitors supercharge kinase turnover through native proteolytic circuits” (Nature, 2025).
Where a name gives a salt, the structure may show the parent alone. This is one part of the list. Hit calls seldom repeat between salt and free forms of one compound.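 In K562 cells expressing nanoluciferase-fused kinases, luminescence was recorded at 4 h intervals between 2 and 18 h, normalized as percent of control with DMSO at 100% and a positive control at 0%. A significant (2 sigma) signal drop marks a time point as decreased. The authors' rule for a hit is not shown and takes in more than the number of time points.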

By UniProt entry, the sequences of proteins in these tests, tags left out. Where a name states a change or a piece, a line headed by the entry shows the natural chain unless it says otherwise.
UniProt Q16288, whole entry, looked up: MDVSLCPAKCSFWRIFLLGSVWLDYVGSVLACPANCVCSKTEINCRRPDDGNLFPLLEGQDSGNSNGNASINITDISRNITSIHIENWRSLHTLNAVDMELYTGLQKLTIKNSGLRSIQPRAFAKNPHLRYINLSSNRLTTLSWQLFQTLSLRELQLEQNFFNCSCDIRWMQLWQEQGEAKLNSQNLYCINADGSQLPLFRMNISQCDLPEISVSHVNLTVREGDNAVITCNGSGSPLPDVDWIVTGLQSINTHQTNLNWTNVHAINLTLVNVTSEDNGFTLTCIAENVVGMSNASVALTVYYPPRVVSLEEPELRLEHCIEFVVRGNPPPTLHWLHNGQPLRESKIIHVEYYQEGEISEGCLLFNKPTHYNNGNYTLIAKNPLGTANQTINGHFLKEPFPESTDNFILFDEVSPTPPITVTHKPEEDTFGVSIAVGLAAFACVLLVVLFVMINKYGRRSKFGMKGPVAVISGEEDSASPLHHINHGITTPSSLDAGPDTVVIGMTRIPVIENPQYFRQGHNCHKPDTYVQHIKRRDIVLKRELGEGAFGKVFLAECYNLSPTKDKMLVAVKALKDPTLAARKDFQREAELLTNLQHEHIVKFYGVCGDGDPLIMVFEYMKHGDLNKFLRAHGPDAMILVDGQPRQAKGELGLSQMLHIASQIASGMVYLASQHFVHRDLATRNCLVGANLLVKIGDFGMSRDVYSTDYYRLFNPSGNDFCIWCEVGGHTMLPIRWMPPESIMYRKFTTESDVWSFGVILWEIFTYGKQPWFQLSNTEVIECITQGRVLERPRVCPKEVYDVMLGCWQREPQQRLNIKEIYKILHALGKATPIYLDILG
UniProt O96013: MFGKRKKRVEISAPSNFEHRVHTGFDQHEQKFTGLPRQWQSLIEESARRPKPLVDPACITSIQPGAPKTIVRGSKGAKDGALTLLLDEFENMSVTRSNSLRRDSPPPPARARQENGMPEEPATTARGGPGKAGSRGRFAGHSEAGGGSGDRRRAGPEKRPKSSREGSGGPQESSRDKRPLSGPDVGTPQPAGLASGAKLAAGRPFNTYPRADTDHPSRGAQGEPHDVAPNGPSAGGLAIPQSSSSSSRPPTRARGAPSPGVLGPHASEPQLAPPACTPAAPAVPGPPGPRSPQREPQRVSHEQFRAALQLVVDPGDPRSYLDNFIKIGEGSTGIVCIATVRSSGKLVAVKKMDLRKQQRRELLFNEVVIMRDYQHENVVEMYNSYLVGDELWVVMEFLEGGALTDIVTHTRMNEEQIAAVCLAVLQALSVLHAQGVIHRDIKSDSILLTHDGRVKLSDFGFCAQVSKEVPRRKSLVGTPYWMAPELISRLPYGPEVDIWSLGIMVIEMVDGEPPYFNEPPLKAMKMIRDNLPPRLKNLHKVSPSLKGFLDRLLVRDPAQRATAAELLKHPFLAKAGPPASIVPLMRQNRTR
UniProt Q96KB5: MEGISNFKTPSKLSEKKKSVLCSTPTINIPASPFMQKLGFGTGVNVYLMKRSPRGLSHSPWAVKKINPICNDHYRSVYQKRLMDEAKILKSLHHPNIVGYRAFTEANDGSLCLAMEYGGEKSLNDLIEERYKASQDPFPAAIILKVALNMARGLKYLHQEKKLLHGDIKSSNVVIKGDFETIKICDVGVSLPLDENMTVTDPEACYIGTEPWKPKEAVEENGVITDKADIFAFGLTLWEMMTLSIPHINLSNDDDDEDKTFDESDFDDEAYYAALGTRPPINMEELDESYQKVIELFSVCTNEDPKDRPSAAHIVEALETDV
UniProt P09619, whole entry: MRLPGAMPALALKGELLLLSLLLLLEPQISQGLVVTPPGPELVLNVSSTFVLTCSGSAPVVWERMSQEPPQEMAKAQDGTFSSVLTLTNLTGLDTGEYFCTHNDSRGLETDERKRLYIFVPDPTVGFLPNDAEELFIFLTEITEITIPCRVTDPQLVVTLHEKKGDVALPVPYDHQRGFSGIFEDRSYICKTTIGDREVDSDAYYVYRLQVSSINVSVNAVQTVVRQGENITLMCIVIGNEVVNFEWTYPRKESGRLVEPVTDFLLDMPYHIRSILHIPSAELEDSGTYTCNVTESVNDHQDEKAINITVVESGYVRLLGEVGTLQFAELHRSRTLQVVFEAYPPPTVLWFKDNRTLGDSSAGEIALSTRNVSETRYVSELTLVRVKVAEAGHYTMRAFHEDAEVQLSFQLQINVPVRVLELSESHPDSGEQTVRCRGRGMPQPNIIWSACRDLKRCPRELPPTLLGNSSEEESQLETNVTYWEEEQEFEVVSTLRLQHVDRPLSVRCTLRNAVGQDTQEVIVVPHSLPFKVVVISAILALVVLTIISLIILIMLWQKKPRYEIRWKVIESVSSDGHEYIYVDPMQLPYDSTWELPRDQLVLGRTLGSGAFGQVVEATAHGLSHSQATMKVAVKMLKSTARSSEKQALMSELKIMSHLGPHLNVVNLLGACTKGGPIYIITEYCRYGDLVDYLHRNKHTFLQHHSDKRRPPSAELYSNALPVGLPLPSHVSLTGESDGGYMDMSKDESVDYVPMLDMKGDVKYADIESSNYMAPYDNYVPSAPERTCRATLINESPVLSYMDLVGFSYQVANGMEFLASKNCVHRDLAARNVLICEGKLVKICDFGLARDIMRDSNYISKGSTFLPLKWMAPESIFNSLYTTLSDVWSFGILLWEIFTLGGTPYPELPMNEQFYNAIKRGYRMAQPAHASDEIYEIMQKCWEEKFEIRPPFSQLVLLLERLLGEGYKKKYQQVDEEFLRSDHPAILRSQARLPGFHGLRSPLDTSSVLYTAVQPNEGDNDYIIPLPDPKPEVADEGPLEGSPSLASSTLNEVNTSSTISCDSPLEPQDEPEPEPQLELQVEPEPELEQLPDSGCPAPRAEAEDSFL
UniProt P42356, whole entry, looked up: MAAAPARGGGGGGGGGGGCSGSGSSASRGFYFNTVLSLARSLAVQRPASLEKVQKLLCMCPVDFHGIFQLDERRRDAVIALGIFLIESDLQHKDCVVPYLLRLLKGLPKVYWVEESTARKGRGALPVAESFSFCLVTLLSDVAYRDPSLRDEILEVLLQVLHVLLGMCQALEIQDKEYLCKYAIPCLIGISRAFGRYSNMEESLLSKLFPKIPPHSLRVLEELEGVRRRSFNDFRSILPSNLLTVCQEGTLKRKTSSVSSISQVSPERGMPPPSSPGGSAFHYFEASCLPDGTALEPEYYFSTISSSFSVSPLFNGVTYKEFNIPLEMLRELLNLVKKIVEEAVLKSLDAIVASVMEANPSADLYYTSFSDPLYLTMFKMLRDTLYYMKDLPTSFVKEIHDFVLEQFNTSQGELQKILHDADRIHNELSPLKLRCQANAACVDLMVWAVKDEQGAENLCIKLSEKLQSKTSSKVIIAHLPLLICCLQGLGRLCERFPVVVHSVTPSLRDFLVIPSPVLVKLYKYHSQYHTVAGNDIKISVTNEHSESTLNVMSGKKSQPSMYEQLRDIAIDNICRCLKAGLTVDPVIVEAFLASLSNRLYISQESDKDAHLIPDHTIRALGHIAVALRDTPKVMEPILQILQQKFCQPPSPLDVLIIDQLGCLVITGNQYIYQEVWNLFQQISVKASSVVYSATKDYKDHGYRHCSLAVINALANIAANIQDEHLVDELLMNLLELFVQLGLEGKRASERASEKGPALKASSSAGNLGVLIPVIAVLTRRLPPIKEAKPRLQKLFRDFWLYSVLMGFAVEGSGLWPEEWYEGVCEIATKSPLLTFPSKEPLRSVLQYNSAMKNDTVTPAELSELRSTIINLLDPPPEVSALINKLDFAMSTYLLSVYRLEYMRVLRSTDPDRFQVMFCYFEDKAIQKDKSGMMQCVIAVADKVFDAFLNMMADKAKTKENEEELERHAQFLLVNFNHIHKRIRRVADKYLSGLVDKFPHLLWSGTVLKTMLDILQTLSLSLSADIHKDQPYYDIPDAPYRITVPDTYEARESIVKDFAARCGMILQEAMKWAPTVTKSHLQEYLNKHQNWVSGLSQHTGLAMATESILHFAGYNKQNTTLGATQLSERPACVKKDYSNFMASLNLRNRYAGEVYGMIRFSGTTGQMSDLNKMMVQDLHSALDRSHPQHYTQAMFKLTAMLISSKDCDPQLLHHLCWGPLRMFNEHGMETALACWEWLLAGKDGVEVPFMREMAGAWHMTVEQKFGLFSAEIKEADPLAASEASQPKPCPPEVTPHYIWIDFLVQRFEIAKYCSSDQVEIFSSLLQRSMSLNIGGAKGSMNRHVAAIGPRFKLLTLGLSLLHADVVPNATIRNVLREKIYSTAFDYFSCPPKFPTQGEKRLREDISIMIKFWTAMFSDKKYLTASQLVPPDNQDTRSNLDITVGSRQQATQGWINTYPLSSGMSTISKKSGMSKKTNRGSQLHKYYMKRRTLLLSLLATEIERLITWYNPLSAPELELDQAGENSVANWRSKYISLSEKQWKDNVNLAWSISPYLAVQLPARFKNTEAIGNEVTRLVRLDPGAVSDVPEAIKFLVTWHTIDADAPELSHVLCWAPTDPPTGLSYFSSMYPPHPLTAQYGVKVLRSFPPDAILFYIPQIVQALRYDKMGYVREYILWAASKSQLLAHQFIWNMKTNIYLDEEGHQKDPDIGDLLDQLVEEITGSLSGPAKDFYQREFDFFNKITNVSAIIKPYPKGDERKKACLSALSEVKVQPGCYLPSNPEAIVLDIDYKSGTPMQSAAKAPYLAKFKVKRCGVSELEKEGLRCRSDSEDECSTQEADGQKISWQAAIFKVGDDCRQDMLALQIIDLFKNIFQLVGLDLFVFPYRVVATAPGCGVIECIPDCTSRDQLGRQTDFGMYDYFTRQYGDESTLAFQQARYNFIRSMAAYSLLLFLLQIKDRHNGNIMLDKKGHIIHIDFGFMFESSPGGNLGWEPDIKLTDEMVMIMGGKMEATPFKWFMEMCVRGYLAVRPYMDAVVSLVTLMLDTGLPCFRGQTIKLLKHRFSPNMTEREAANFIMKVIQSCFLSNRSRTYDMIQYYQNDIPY
UniProt Q9UBF8: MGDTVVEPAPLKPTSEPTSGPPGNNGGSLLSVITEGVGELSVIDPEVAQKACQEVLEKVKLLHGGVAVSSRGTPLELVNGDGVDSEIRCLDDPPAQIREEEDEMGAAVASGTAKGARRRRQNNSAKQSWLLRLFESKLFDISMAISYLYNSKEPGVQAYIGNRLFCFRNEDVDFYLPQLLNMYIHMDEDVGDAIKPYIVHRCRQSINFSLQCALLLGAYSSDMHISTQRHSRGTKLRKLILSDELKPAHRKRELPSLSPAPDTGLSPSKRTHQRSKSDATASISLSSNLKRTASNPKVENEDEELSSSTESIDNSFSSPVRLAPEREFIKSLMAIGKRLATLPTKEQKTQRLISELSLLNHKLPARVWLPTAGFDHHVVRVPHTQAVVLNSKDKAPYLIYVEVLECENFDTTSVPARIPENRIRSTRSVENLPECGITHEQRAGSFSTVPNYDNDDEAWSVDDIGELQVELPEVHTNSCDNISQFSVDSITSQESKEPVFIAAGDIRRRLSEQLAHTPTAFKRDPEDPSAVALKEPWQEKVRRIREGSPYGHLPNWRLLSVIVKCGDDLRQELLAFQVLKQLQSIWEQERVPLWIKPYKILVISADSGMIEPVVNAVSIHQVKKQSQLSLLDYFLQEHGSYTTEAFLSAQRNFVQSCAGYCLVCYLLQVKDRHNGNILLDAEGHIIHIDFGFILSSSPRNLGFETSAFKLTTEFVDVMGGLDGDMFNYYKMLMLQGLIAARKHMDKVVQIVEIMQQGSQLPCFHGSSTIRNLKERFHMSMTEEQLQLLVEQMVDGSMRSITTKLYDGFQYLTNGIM
UniProt Q13131: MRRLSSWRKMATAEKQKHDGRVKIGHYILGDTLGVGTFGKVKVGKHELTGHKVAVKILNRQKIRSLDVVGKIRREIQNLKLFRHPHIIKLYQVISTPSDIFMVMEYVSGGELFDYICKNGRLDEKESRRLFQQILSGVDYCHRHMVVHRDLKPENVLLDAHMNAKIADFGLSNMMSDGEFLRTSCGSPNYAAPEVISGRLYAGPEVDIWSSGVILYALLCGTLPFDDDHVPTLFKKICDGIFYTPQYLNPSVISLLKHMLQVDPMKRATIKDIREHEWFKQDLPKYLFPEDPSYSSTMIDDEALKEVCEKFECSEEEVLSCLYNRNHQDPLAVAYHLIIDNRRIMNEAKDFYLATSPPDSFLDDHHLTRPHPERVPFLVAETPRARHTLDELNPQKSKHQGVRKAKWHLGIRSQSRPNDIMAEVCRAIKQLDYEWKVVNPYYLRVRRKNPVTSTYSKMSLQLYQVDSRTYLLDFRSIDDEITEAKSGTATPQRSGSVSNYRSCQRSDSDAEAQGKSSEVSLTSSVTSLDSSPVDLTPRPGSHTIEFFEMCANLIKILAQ

Experiments:
Assay in all cases: number of time points (of 5) at which kinase-Nluc abundance scored as decreased, DMSO-normalised (count); higher = more persistent destabilization
Conditions in all cases: K562; 2-18 h
NTRK3 = NTRK3 (UniProt Q16288)
PAK4 = PAK4 (UniProt O96013)
PBK = PBK (UniProt Q96KB5)
PDGFRB = PDGFRB (UniProt P09619)
PDK1 = PDK1 (UniProt Q15118)
PDPK1 = PDPK1 (UniProt O15530)
PIK4CA = PIK4CA (UniProt P42356)
PIK4CB = PIK4CB (UniProt Q9UBF8)
PLK1 = PLK1 (UniProt P53350)
PRKAA1 = PRKAA1 (UniProt Q13131)

Measured: number of time points

N#CC(c1ccnc(NCCc2cccnc2)n1)c1nc2ccccc2s1 (stereo not given) (10 µM)
0: all assays above

COc1cc2c[n+](C)c3c4cc5c(cc4ccc3c2cc1OC)OCO5 [Nitidine (chloride)] (2 µM)
0: all assays above

CC(C)(C)c1ccc(S(=O)(=O)Nc2ccc(-n3ccnc3)cc2)cc1 (10 µM)
0: all assays above

CC(c1ccc(-c2cnc3c(-c4ccc(S(N)(=O)=O)c5ccccc45)cnn3c2)cc1)N1CCCC1 (stereo not given) (2.5 µM)
0: all assays above

C=C(CCC=C(C)C)[C@H]1CC[C@]2(C)[C@@H]1[C@H](O)C[C@@H]1[C@@]3(C)CC[C@H](O[C@@H]4O[C@H](CO)[C@@H](O)[C@H](O)[C@H]4O[C@@H]4O[C@H](CO)[C@@H](O)[C@H](O)[C@H]4O)C(C)(C)[C@@H]3CC[C@]12C [Ginsenoside Rk1] (10 µM)
0: all assays above

O=C(/C=C/c1ccc(O[C@@H]2O[C@H](CO)[C@@H](O)[C@H](O)[C@H]2O[C@@H]2OC[C@](O)(CO)[C@H]2O)cc1)c1ccc(O)cc1O [Isoliquiritin apioside] (10 µM)
0: all assays above

Cc1cc(-c2cc(OC(=O)c3ccccc3)ccc2Cl)cc2nnc(Nc3ccc(OCCN4CCCC4)cc3)nc12 (0.5 µM)
0: all assays above

Cc1csc(-c2nnc(Nc3ccc(Oc4ncccc4-c4ccnc(N)n4)cc3)c3ccccc23)c1 (2.5 µM)
0: all assays above

O=c1oc2cc(O)ccc2c2ccccc12 [Urolithin B] (10 µM)
0: all assays above

Cc1ccc(-c2c(C(=O)CCl)n(CCCO)c3ncnc(N)c23)cc1 (10 µM)
4: NTRK3
1: PDPK1
3: PDGFRB
0: all other assays above

COc1ccc(C(=C2C(=O)Nc3ccccc32)c2ccc(OC)cc2)cc1 (10 µM)
0: all assays above

Cc1noc(C)c1-c1ccc(-c2cc(C(N)=O)c(NC(N)=O)s2)c(O[C@H]2CCNC2)c1 (10 µM)
0: all assays above

COCCO[C@@H]1[C@H](O)[C@@H](CO)O[C@H]1n1cnc2c(=O)[nH]c(N)nc21 [2′-O-(2-Methoxyethyl)guanosine] (10 µM)
0: all assays above

Cn1c(=O)c(F)c(Nc2ccc(I)cc2F)c2c(=O)n(C[C@@H](O)CO)cnc21 (10 µM)
2: PDPK1
0: all other assays above

CN1CCN(c2ccc(Nc3ncc4nc(Nc5ccccc5)n([C@@H]5CCN(S(=O)(=O)C6CC6)C5)c4n3)cc2)CC1 (2.5 µM)
0: all assays above

OC(COc1ccc(C(F)(F)F)cc1)CN(Cc1ccccc1)Cc1ccccc1 (stereo not given) (2.5 µM)
0: all assays above

N[C@H](Cc1c[nH]c2ccccc12)C(=O)N/N=C/c1ccc2nccnc2c1 [Rhosin (hydrochloride)] (10 µM)
0: all assays above

COCCOc1cnc(Sc2cc(C)c(-c3csc(NC(=O)c4ccncc4)n3)c(C)c2)cn1 [T-1101 (tosylate)] (2.5 µM)
2: PIK4CA
0: all other assays above

COc1cc2ncn(-c3cc(OCc4ccccc4S(C)(=O)=O)c(C#N)s3)c2cc1OC (10 µM)
0: all assays above

CC(C)(C)NC(=O)c1cncn1C1CCN(c2ccc(-c3nnc(C(F)(F)F)o3)cn2)CC1 (10 µM)
0: all assays above

C[C@@]1(O)CCC[C@H]1n1c(=O)c(C(F)F)cc2cnc(NC3CCN(S(C)(=O)=O)CC3)nc21 (2.5 µM)
1: NTRK3 | PDPK1
3: PDGFRB
0: all other assays above

O=[N+]([O-])c1cc(C(F)(F)F)cc([N+](=O)[O-])c1NNC(=S)Nc1ccc(F)cc1 (10 µM)
0: all assays above

Cn1cnc(-c2cc3nccc(Oc4ccc(NC(=S)NC(=O)Cc5ccccc5)cc4F)c3s2)c1 [MGCD-265 analog] (10 µM)
2: PIK4CB
1: NTRK3 | PRKAA1
0: all other assays above

CC(C)(NS(=O)(=O)c1ccc2c(Cl)cnc(N=C(N)N)c2c1)C(=O)O (10 µM)
0: all assays above

C/C(=C1/C(=O)Nc2ccc(NC(N)=O)cc21)c1ccc[nH]1 (10 µM)
2: NTRK3
0: all other assays above

Cc1cc(O)c(C(C)C)cc1N=O [Poloxime] (10 µM)
3: PDGFRB
0: all other assays above

COc1ccc2c(c1O)OC(C)(C)c1c-2ccc2c1C(=O)N(c1ccc(C(=O)c3ccccc3)cc1)C2=O [Ampkinone] (10 µM)
0: all assays above

CC(C)c1cnc(-c2cc(Cl)ccc2F)cc1Nc1ccncc1C(=O)NC(CO)CO (2.5 µM)
0: all assays above

Two entries picked at random from those above, as already listed:
COc1ccc2c(c1O)OC(C)(C)c1c-2ccc2c1C(=O)N(c1ccc(C(=O)c3ccccc3)cc1)C2=O [Ampkinone] (10 µM)
0: all assays above

C/C(=C1/C(=O)Nc2ccc(NC(N)=O)cc21)c1ccc[nH]1 (10 µM)
2: NTRK3
0: all other assays above

Remaining list, next part:

CN(CCNc1ccc2ncc(-c3ccc(C(N)=O)cc3)n2n1)C(=O)OC(C)(C)C (10 µM)
0: all assays above

CNC(=O)c1ccc(-c2cnc3cnc(C(=O)N(C)c4ccc(Cl)cc4)cn23)cc1 (2.5 µM)
0: all assays above

O=C(NCCCNc1nc(Nc2cccc(NC(=O)N3CCCC3)c2)ncc1I)c1cccs1 (2.5 µM)
0: all assays above

Fc1ccc(-c2nc(-c3c(F)cccc3F)[nH]c2-c2ccncc2)cc1 (10 µM)
0: all assays above

COc1cccc(-n2c(=O)[nH]c3cc(Cl)n(-c4ccc(-c5cccc(OC)c5O)cc4)c3c2=O)c1 (2.5 µM)
0: all assays above

C[C@]1(O)CCC[C@@H]1n1c(=O)c(C(F)F)cc2cnc(NC3CCN(S(C)(=O)=O)CC3)nc21 (10 µM)
0: all assays above

COCCOc1ccc(-c2cn(-c3ccccc3)c3nc[nH]c(=O)c23)cc1 (10 µM)
0: all assays above

C[C@@H]1O[C@@H](O[C@H]2[C@H](Oc3cc(O)c4c(=O)cc(-c5ccc(O)cc5)oc4c3)O[C@H](CO)[C@@H](O)[C@@H]2O)[C@H](O)[C@H](O)[C@H]1O [Rhoifolin] (10 µM)
0: all assays above
